# Laboratory results: PubChem BioAssay AID540276 (National Center for Advancing Translational Sciences (NCATS), 2011)
# Several values for one entry are separate records, joined by “and”; a condition that tells them apart may be missing. Identical values can stand only once. The campaign covered roughly 300,000 compounds. About 5,400 (1.8%) were called active. Inconclusive results, whose numbers are uncertain, are shown with a selection of clear calls. Calls follow the shape of the full dose curve; tested in HEK293 cells. Potencies beside an inconclusive call are fits to weak or partial responses and may not hold up.
# Assay: qHTS for inhibitors of binding or entry into cells for Marburg Virus
# Conditions: Marburg virus pseudotyped entry inhibition, cell reporter; activity change, negative = inhibition: at 37.8 µM (top of the series) unless noted
# % is scaled to controls: 0 for no effect and ±100 for the full control effect; potency is read from the fitted curve at half-maximal effect.
SMILES,Potency,"activity change, negative = inhibition"
COc1ccccc1C(=O)N1CCN(Cc2cc(=O)oc3cc(C)ccc23)CC1,inactive,
CCN1CCN(c2cc(C)c3cc(NC(=S)N4CCN(c5ccccc5)CC4)ccc3n2)CC1,"inconclusive: 15.8 µM [inhibitor, partial curve, poor fit]",
NS(=O)(=O)c1ccc(NC(=S)NC(=O)c2ccc(-c3ccccc3)cc2)cc1,"inconclusive: 11.2 µM [inhibitor, single point]",
O=C(COc1ccc2ccccc2c1Br)Nc1ccncc1,"inconclusive: 1.26 µM [inhibitor, single point]",
COc1ccc([C@H]2[C@H](C(=O)C(C)(C)C)N3N=Cc4ccccc4C3[C@]23N=C(c2ccccc2)OC3=O)cc1OC (some centres undefined),"inconclusive: 8.2 µM [inhibitor, partial curve]",
CCc1ccc(OCCNC(=O)OCc2ccccc2)cc1,"inconclusive: 35.5 µM [activator, single point]",
Fc1ccc(-c2n[nH]c(=S)n2Cc2ccccc2)cc1,,inconclusive: 2.88% [activator]
CC1(C)Cc2c(sc3c2c(=N)n(Cc2ccco2)c(=O)n3Cc2ccc(F)cc2)CO1,"inconclusive: 35.5 µM [inhibitor, single point]",
CCOC(=O)c1ccc(S(=O)(=O)N2CCN(CC(O)COc3ccc(C#N)cc3)CC2)cc1 (centres undefined),"inconclusive: 35.5 µM [inhibitor, single point]",
Cc1cccc(C(=O)OCC(=O)NCCCc2ccccc2)c1,"inconclusive: 35.5 µM [activator, single point]",
CCCCNC(=S)NNC(=O)CCn1cc(C)cn1,"inconclusive: 10 µM [activator, partial curve]",
O=S(=O)(c1ccc(C(F)(F)F)cc1)N1CCN(CCc2ccccc2)CC1,"inconclusive: 35.5 µM [inhibitor, single point]",
CCCn1c(NC(=O)c2cccc(C)c2C)nc2ccccc21,"inconclusive: 23.1 µM [inhibitor, single point]",
S=C1N(c2ccccc2)C(c2ccc(Br)cc2)N2CCCN12 (centres undefined),inactive,
COc1ccc(-c2c3c(=O)n(C)c(=O)n(C)c3cn2-c2cc(OC)ccc2OC)cc1,active: 12.6 µM,
Cc1ccnc(Nc2nc(-c3ccc(O)cc3)cs2)c1,inactive,
Cc1ccccc1-c1nc(CN2CCC(C(=O)NC3CCCCC3)CC2)c(C)o1,inactive,
O=c1onc(-c2ccccc2)n1-c1cc(Cl)cc(Cl)c1,inactive,
Cc1ccc(-c2noc(CCC(=O)NCCN3CCc4ccccc4C3)n2)cc1,"inconclusive: 35.5 µM [inhibitor, single point]",
CC1CC(C)(C)NC(=S)N1CCCC(=O)N1CCN(c2ccc(F)cc2)CC1 (centres undefined),"inconclusive: 17.8 µM [activator, single point]",
CCOC(=O)c1ccc(NC2SC(=O)N(Cc3cccc(C(=O)O)c3)C2=O)cc1 (centres undefined),inactive,
Cc1ccc(OP(=O)(NCc2ccccc2)Oc2ccc(C)cc2)cc1,"inconclusive: 14.1 µM [inhibitor, single point]",
CCn1cc(C(=O)O)c(=O)c2cc(F)c(N3CCN(C(=S)Nc4ccc(OC)cc4)CC3)cc21,inactive,

SMILES,Potency,"activity change, negative = inhibition"
CN(C)CCNC(=O)Nc1ccc(Cl)c(Cl)c1,"inconclusive: 16.4 µM [inhibitor, single point]",
COc1ccc(CNC(=O)CN2C(=O)NC(c3ccccc3)(c3ccccc3)C2=O)cc1,inactive,
FC(F)(F)c1nc(SCc2ccc(Cl)cc2Cl)n[nH]1,inactive,
O=C(O)COc1ccc(/C=C/c2ccc3cccc([N+](=O)[O-])c3n2)cc1,inactive,
Cc1ccc(Sc2cc(Cl)nc(N)n2)cc1,"inconclusive: 7.08 µM [activator, partial curve]",
N/C(=N/O)C(c1ccccc1)c1ccccc1,"inconclusive: 15.8 µM [activator, single point]",
C[N+]1(C2CCC3CCCC2C3O)CCCCC1 (centres undefined),"inconclusive: 14.1 µM [activator, single point]",
CN(C)c1nc2c(N)ncnc2n1[C@H]1O[C@@H](CO)[C@H](O)[C@@H]1O,inactive,
O=C(NNC(=O)C1CCCN(c2ncccn2)C1)c1ccc(F)cc1 (centres undefined),inactive,
COc1cccc(N(CC(=O)NC(C)c2ccccc2)S(C)(=O)=O)c1 (centres undefined),inactive,
CC(C)CNC(=O)c1c2c(nc3ccccc13)-c1ccccc1CC2,inactive,
CN1C(=O)NC(c2ccccc2)C2=C1CN(c1cccc(C(F)(F)F)c1)C2=O (centres undefined),inactive,
Cc1c2c(nc3ccccc13)CCC(C(C)(C)C)C2 (centres undefined),inactive,
Cc1nn(Cc2nnc(SCC(=O)Nc3ccc(Cl)cc3)n2C)c(C)c1[N+](=O)[O-],inactive,
COc1ccc(C2=CSC3=NCCN23)cc1,"inconclusive: 1.26 µM [activator, partial curve, poor fit]",
Cc1c(NC(=O)c2ccc(N3CCC(C)CC3)c([N+](=O)[O-])c2)cccc1-c1nc2ccccc2o1,inactive,
O=C(c1cccc(F)c1)N1CCN(C(=O)c2cc3ncc(Br)cn3n2)CC1,inactive,
CCCc1ccc(OCC(O)CN2CCN(c3ccccc3)CC2)cc1 (centres undefined),"inconclusive: 14.1 µM [inhibitor, single point]",
Cc1ccc(S(=O)(=O)N[C@H](C(=O)N2CCC3(O)CCCCC3C2)c2ccccc2)cc1 (some centres undefined),inactive,
Cc1ccc(-n2c(O)c(/C=N/Nc3ccc(S(=O)(=O)N4CCOCC4)cc3[N+](=O)[O-])c3ccccc3c2=O)c(C)c1,"inconclusive: 15.8 µM [inhibitor, single point]",
COc1ccc(Cn2c(N)c(C(=O)NCc3ccco3)c3nc4ccccc4nc32)cc1,"inconclusive: 35.5 µM [inhibitor, single point]",
COc1ccc(CCN2C(=O)N(c3ccc(F)cc3)C(=O)C2CC(=O)Nc2ccc(F)c(F)c2)cc1 (centres undefined),"inconclusive: 35.5 µM [inhibitor, single point]",
Cc1cccc(C(=O)O/N=C(\N)c2cccc([N+](=O)[O-])c2)c1,"inconclusive: 23.1 µM [inhibitor, single point]",

SMILES,Potency,"activity change, negative = inhibition"
CC1Cc2ccccc2N1Cc1cccc([N+](=O)[O-])c1 (centres undefined),"inconclusive: 20 µM [inhibitor, partial curve, poor fit]",
O=C(c1ccco1)N1CCN(C(=O)N2c3ccccc3Sc3ccccc32)CC1,"inconclusive: 0.184 µM [inhibitor, full curve, poor fit]",
COc1ccc(C(=O)C2CCN(C(=S)NCCc3ccc(OC)c(OC)c3)CC2)cc1,"inconclusive: 10 µM [inhibitor, partial curve, poor fit]",
CC(C)CNC(=O)c1cccc(NC(=O)COc2cccc([N+](=O)[O-])c2)c1,"inconclusive: 8.91 µM [inhibitor, partial curve, poor fit]",
O=C1[C@H]2[C@H]3[C@H](O)[C@H](O)C/C(=N\OCc4ccccc4)[C@@H]3CC[C@H]2C(=O)N1c1ccc(F)cc1F,"inconclusive: 1.19 µM [activator, single point]",
COc1ccc(-c2nnc(NC(=O)C3CCCO3)s2)cc1 (centres undefined),inactive,
CCOC(=O)N/C(N)=N/c1nc2ccccc2s1,inactive,
Cc1noc(/C=C/Nc2ccc(F)cc2F)c1[N+](=O)[O-],"inconclusive: 11.2 µM [inhibitor, single point]",
O=S(=O)(Nn1cnnc1)c1ccccc1,inactive,
c1cc(OCCN2CC2)ccn1,active: 7.08 µM,
COc1ccccc1N(C(=O)c1snc(C(N)=O)c1N)C(C(=O)NC1CCCC1)c1ccc(N(C)C)cc1 (centres undefined),"inconclusive: 6.31 µM [inhibitor, partial curve, poor fit]",
COc1ccc(-c2cc(=O)n(-c3ccc([N+](=O)[O-])cc3)[nH]2)cc1,"inconclusive: 35.5 µM [activator, single point]",
COc1cc2c(cc1OC)CN(C(=S)Nc1ccccc1Cl)CC2,"inconclusive: 12.6 µM [inhibitor, single point]",
Cc1ccc(N(CCC#N)C(=O)COC(=O)c2ccccc2SCC(=O)N2CCCC2)cc1,inactive,
CC1=C(C(=O)Nc2cccnc2)C(c2ccccc2)n2nc(SCc3ccccc3F)nc2N1 (centres undefined),"inconclusive: 35.5 µM [inhibitor, single point]",
CN(C)c1ccc(/C=N/OC(=O)Nc2ccccc2)cc1,"inconclusive: 7.94 µM [inhibitor, partial curve, poor fit]",
CCCC(=O)O[C@@H]1C[C@@H](C)N(C(=O)c2ccccc2)c2ccc(C)cc21,"inconclusive: 0.112 µM [activator, full curve, poor fit]",
CCc1ccc(OCC(=O)Nc2ccc(S(=O)(=O)N3CCCC3)cc2)c(Br)c1,"inconclusive: 11.6 µM [inhibitor, partial curve, poor fit]",
COc1c(C)cccc1C(=O)Nc1ccc(CN2CCOCC2)cc1,"inconclusive: 5.8 µM [activator, single point]",
Cc1cc(NC(=O)CSc2nc3c(C)cccc3cc2C)no1,"inconclusive: 3.16 µM [inhibitor, partial curve, poor fit]",
CC(=O)N/C(=C\c1cccc([N+](=O)[O-])c1)C(=O)NC1CCCCC1,"inconclusive: 11.6 µM [activator, partial curve, poor fit]",
O=C(Nc1ccc(F)cc1F)c1ccc2c(c1)OCCO2,active: 2.82 µM,
C[C@@H]1CC[C@H]2C(=O)O[C@@H](COc3ccc(C(C)(C)C)cc3)CN2[C@H]1c1ccc(Br)cc1,"inactive and inconclusive: 6.68 µM [inhibitor, single point]",
